Data taken from patent publication US7314729B2, “Methods and kits for transferases” (Promega Corp., priority 2002, dated 2008).
Not every detail of the peptide structures is certain; ends, links or a residue may be inferred. *1 amine or outer side, *2 acyl side, *3 side chain or, on linkers, in order; H or OH if unused. Where a SMILES comes first, the peptide text is derived from it. Bridges are numbered along the chain shown (N, C = ends). Roman numbers before positions name the chains, in order. Rhodamine110 = O=C1OC2(c3ccc(N[*:1])cc3Oc3cc(N[*:2])ccc32)c2ccccc21

Molecular target: T1, catalytic subunit of cAMP-dependent protein kinase (PKA) (Bos taurus, UniProt P00517)
T1 construct: purchased Promega Corp., Madison, Wis
Assay: PKA kinase assay with inhibitors (bis-kemptide R110 substrate, Aminopeptidase M, fluorescence)
Type: biochemical
Conditions: peptide substrates compared under similar conditions

CC(C)C[C@H](NC(=O)[C@H](C)NC(=O)[C@H](CCCCN)NC(=O)[C@@H](N)CCCCN)C(=O)N[C@@H](CCCNC(=N)N)C(=O)N[C@@H](CCCNC(=N)N)C(=O)N[C@@H](C)C(=O)N[C@@H](CO)C(=O)N[C@@H](CC(C)C)C(=O)N[C@@H](CCCCN)C(=O)NCC(=O)Nc1ccc2c(c1)Oc1cc(NC(=O)CNC(=O)[C@H](CCCCN)NC(=O)[C@H](CC(C)C)NC(=O)[C@H](CO)NC(=O)[C@H](C)NC(=O)[C@H](CCCNC(=N)N)NC(=O)[C@H](CCCNC(=N)N)NC(=O)[C@H](CC(C)C)NC(=O)[C@H](C)NC(=O)[C@H](CCCCN)NC(=O)[C@@H](N)CCCCN)ccc1C21OC(=O)c2ccccc21 (stereo partly shown) [bis-SPK-2, KKALRRASLKG (SEQ. ID. NO:2)-R110-GKLSARRLAKK] (I: H-KKALRRASLKG / II: H-KKALRRASLKG; linker I:C-II:C via Rhodamine110)
suitability as substrate for PKA: better substrate for PKA than the peptide substrate bis-SPK-4
